In patent US9260481B2, “Peptide derivatives as antibiotics” (priority 2011, dated 2016):
≈ marks a conversion by molar mass, not a printed value.

How the values were obtained:
Bacillus subtilis = test: microbe, parasite or virus in culture; conditions: DSM347
Protocol: (§1) The minimal inhibitory concentrations (MIC) were determined according to the Clinical and Laboratory Standards Institute (CLSI) conditions guidelines detailed in Table 7. Assays were performed in triplicate.
(§2) Preparation of Inocula. Five to 10 well-isolated colonies were picked and resuspended in 3 ml sterile saline. The inoculum was re-suspended by vigorous shaking on a vortex mixer for 15 s. Turbidity was adjusted to McFarland standard 0.5 ([…]). The inoculum was further diluted in the appropriate media (Table 7) to give a final inoculum in each well of ˜2-8×10^5 CFU/ml.
(§3) Addition of Test Article. Stock solutions of Odilomycin A or comparator were diluted in the appropriate media to give a maximum starting concentration of 50 μg/mL in the assay. 50 μL of medium was dispensed into each well in columns two to 12 of a 96 well plate. 100 μL of the appropriate test compound solution (100 μg/mL) was dispensed into each well in column one. In the case of M. catarrhalis, M. haemolytica and P. multocida these values were doubled (a final assay volume of 200 μL was used). […] Columns 11 and 12 served as positive (no drug or test article, inoculum added), and negative (no drug, test article, or inoculum added) growth controls respectively.
(§4) Addition of Bacterial Strains. […]

[1] = tested on: Staphylococcus epidermidis; test: microbe, parasite or virus in culture; conditions: ATCC12228
Protocol: as §1, §2, §3, §4

`CN[C@H](CC(C)C)C(=O)N[C@H]1C(=O)N[C@@H](CC(N)=O)C(=O)N[C@H]2C(=O)N[C@H]3C(=O)N[C@H](C(=O)N[C@H](C(=O)O)c4cc(O)cc(O)c4-c4cc3ccc4O)[C@H](O)c3ccc(c(Cl)c3)Oc3cc2cc(c3O[C@@H]2O[C@H](CO)[C@@H](O)[C@H](O)[C@H]2O[C@H]2C[C@](C)(N)[C@H](O)[C@H](C)O2)Oc2ccc(cc2Cl)[C@H]1O` [Vancomycin, vancomycin] showed an MIC (Bacillus subtilis) of 0.2 µg/mL (≈ 0.138 µM) and an MIC [1] of 0.2 µg/mL (≈ 0.138 µM).
